According to patent US20050042643A1, “ELAVL-1” (EiRx Therapeutics, Limited, priority 2001, published 2005):
At least one compound was matched to its structure with a doubt left.

Legend:
ELAVL-1 mRNA = assay: Microarray of ELAVL-1 expression in retinoic acid treated HL60 cells; format: cell-based, human; details: 10 μM
HL60 cells = assay: Neutrophil differentiation of HL60 cells (NBT reduction test); format: cell-based, human; details: 10 μM, 5-day time course

With `CC1=C(/C=C/C(C)=C/C=C/C(C)=C/C(=O)O)C(C)(C)CCC1` [retinoic acid, Retinoic acid] as the molecule, how does the “expression of ELAVL-1” value (ELAVL-1 mRNA; Day 1, 2 and 3) read?
The value was “increases”.

And the “expression of ELAVL-1” value (ELAVL-1 mRNA; Day 4)?
The value was “decreases”.

What about the “neutrophil differentiation of HL60 cells” value (HL60 cells) of the same molecule?
The value was “differentiate into neutrophils”.
